Measured values taken from doi:10.1101/2021.07.18.452865.
Where a chain is given by its changes, count along the chain named. Results are given in words; binding and its absence hold for the method and conditions named. Binding seen in cells or lysates may run through a third protein. Some entries that bind do so weakly or less than the wild type. Tags and fused reporters may be left off the sequences shown.

Sequences of proteins named here, by UniProt entry; tags and fusion partners are left off. A change or cut given only in a name is not applied to a line headed by its entry. Residues count along the entry.
UniProt Q13705, 19-512: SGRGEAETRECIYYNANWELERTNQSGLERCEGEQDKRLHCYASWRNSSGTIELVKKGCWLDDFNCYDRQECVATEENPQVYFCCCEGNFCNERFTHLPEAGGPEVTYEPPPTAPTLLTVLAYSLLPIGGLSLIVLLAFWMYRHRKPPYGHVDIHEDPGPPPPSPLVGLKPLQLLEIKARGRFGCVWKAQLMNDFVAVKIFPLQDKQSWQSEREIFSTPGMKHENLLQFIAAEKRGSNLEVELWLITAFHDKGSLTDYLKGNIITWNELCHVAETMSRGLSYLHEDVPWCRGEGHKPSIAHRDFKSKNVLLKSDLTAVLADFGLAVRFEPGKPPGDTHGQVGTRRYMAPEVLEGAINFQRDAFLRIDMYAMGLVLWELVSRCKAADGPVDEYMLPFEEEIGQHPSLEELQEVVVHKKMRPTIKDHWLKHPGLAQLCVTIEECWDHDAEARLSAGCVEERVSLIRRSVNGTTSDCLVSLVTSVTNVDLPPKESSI

Experiments:
Myc-tagged ACVR1[R206H] = target: T1, Myc-tagged ACVR1[R206H] (UniProt Q04771); assay: co-IP
T1 sequence: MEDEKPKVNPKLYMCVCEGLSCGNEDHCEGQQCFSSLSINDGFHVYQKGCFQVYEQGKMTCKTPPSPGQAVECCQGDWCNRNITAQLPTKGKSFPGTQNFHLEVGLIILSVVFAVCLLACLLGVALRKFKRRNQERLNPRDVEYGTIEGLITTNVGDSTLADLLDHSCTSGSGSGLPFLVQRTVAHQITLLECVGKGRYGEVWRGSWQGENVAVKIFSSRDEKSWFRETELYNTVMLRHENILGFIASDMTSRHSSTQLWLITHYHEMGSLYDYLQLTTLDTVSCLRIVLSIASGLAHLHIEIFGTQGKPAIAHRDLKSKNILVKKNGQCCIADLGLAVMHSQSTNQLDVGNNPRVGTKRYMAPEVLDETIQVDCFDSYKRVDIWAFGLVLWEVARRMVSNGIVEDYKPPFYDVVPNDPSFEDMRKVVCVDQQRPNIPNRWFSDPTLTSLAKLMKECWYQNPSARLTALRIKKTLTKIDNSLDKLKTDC

[1] = target: T2, Myc-tagged ACVR1 (Activin A Receptor Type 1), wild type (UniProt Q04771); assay: co-IP
T2 sequence: T1 sequence with H186R

**Q.** What does the source list for “HA-tagged ACVR2B (from UniProt Q13705 19-512) (receptor)”?
**A.** binding (Myc-tagged ACVR1[R206H]): binds; binding [1]: binds
